According to publication PMC7667871:
No constants are given. Whether binding was seen depends on the method and setting. In cells and extracts the contact can be indirect. Some entries that bind do so weakly or less than the wild type.

Target: T1, aRrp4 of Sulfolobus solfataricus (exosomal subunit) (S. solfataricus (endogenous in S. solfataricus P2)) (UniProt Q9UXC4)
T1 sequence: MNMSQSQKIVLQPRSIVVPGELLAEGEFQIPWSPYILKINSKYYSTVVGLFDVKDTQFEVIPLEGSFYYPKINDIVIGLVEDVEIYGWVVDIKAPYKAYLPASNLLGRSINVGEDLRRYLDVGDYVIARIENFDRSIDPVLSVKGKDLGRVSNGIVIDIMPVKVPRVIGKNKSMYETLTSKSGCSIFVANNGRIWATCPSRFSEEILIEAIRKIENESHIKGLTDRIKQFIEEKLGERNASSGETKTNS
Assay: co-IP; cleared lysate of S. solfataricus cells (with or without UV irradiation; DNase- and RNase-treated) incubated 2 h with Protein-A-Sepharose beads coupled to polyclonal aRrp4-directed antibody; beads washed 10 times with buffer containing 1 M NaCl; SDS-PAGE, transfer to nitrocellulose, Western blot with aRrp41-specific antibodies

B1: aRrp41 of Sulfolobus solfataricus (exosomal subunit) (protein, UniProt Q9UXC2 1-248)
chain: MREMLQVERPKLILDDGKRTDGRKPDELRSIKIELGVLKNADGSAIFEMGNTKAIAAVYGPKEMHPRHLSLPDRAVLRVRYHMTPFSTDERKNPAPSRREIELSKVIREALESAVLVELFPRTAIDVFTEILQADAGSRLVSLMAASLALADAGIPMRDLIAGVAVGKADGVIILDLNETEDMWGEADMPIAMMPSLNQVTLFQLNGSMTPDEFRQAFDLAVKGINIIYNLEREALKSKYVEFKEEGV
Q: B1 was tested. Which binding did it give?
A: The binding was “binds”.
